Common to all, as to test: log2 fold change, soluble protein after heating vs DMSO (PISA); higher = thermal stabilisation; K562 lysate, 10 uM; active = over 0.2 and 3.5 SD of the protein, either way, in both replicates (recomputed)
Compound in assay [1]: CC(=O)c1cnc2ccc(-c3cc(Cl)c(O)c(Cl)c3)nc2c1N[C@H]1CC[C@H](CN(C)C)CC1
The procedure, abridged:
(§1)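 K562 pellets were dounce-homogenised in PBS pH 7.4 with 1 mM MgCl2, and the crude extract at 1 mg/mL protein was treated with 10 μM compound for 30 min. Aliquots were heated for 3 min across 48°C-58°C, pooled, and brought to 0.5% NP-40 at 4°C; soluble protein was the supernatant after 21,000xg for 90 min. Soluble protein was quantified by TMTpro 16plex LC-MS/MS with channel sums equalised, and reported as log2 fold change in thermal stability against DMSO controls, with values from duplicates.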

Chains of the proteins cited; added tags and fusions are not shown. Lines headed by an entry give the natural chain unless they say otherwise; changes in a name come on top.
UniProt P43360, whole entry, looked up: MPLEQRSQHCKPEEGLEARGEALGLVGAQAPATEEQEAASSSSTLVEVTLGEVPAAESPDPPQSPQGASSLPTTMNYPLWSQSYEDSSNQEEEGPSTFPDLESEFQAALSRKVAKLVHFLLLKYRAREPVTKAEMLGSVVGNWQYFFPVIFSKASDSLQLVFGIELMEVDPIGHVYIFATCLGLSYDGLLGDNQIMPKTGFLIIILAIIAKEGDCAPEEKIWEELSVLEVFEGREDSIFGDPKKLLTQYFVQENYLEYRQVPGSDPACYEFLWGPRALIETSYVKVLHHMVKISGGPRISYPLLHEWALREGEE
UniProt O43325: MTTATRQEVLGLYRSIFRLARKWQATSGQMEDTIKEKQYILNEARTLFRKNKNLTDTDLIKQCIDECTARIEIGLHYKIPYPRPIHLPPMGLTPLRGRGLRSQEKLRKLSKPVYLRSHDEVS
UniProt Q13233: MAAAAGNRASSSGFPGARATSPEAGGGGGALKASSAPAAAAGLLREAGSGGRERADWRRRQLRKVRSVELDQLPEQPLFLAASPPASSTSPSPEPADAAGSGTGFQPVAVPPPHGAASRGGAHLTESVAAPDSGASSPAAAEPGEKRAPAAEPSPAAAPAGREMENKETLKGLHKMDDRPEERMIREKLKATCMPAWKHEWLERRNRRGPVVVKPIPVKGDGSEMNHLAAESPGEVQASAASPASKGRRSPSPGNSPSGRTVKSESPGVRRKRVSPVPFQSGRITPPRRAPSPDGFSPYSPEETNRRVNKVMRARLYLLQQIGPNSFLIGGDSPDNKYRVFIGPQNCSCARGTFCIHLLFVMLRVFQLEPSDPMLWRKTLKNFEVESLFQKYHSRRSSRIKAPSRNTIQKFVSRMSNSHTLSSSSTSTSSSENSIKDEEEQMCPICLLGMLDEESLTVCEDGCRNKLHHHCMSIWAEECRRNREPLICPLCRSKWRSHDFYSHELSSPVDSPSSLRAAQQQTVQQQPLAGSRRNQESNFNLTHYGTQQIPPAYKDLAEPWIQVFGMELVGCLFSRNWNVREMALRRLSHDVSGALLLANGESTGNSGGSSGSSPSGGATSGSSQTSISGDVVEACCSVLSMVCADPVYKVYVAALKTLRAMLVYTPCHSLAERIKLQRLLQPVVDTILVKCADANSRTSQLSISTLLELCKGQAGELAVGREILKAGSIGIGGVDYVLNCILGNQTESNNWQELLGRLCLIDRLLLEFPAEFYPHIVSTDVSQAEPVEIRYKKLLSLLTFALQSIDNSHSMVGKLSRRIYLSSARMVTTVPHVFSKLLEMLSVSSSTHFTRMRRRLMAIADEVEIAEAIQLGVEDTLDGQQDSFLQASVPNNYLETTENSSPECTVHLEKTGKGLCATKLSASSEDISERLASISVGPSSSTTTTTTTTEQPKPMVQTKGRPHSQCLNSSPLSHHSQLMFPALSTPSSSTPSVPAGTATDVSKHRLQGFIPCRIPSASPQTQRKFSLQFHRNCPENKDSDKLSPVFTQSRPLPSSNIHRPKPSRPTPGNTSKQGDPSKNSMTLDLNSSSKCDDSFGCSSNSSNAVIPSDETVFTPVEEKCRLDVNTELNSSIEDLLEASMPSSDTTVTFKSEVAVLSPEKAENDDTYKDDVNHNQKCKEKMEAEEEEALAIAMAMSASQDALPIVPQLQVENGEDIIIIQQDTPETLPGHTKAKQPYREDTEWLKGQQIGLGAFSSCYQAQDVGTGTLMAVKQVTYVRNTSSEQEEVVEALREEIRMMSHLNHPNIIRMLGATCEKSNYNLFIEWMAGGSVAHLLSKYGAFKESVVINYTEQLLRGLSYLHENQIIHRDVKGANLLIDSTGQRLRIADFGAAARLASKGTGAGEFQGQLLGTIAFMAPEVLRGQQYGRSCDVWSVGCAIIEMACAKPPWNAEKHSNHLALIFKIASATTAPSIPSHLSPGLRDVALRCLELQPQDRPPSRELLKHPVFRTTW
UniProt Q96LZ2: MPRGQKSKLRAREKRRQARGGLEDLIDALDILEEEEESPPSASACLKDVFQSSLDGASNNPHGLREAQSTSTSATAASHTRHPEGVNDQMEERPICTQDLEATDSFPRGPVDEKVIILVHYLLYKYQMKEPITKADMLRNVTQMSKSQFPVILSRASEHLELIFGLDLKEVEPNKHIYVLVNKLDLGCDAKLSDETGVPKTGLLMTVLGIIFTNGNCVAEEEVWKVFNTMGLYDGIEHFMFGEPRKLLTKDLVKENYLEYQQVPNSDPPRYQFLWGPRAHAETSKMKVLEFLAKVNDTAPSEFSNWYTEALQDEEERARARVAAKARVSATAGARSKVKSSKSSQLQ
UniProt Q9ULX9: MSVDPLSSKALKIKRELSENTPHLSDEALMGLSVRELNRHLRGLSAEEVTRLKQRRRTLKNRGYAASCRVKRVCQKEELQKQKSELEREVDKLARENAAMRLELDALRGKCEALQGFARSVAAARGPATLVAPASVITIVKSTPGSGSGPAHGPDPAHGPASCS
UniProt Q86UD3: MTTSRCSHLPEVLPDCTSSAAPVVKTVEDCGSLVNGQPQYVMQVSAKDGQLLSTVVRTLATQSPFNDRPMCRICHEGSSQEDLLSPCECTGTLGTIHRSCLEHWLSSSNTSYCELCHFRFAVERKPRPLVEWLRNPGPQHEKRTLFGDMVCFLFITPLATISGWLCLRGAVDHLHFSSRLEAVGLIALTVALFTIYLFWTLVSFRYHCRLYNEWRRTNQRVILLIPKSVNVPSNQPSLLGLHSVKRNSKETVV
UniProt Q9BPZ7, whole entry, looked up: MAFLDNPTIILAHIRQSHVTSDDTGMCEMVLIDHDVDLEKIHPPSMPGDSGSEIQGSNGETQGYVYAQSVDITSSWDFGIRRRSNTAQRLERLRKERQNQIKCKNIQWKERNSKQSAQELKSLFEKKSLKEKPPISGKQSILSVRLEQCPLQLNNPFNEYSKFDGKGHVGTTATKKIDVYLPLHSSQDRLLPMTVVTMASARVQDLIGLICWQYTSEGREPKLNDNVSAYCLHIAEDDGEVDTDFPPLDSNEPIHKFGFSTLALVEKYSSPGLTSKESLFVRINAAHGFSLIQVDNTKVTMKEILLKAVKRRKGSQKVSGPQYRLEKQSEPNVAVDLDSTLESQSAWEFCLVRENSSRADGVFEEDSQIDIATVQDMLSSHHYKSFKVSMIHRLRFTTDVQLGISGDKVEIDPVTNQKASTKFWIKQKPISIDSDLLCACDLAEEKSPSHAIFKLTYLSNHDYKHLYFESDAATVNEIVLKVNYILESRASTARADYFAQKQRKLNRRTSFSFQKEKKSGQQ
UniProt Q96JG8: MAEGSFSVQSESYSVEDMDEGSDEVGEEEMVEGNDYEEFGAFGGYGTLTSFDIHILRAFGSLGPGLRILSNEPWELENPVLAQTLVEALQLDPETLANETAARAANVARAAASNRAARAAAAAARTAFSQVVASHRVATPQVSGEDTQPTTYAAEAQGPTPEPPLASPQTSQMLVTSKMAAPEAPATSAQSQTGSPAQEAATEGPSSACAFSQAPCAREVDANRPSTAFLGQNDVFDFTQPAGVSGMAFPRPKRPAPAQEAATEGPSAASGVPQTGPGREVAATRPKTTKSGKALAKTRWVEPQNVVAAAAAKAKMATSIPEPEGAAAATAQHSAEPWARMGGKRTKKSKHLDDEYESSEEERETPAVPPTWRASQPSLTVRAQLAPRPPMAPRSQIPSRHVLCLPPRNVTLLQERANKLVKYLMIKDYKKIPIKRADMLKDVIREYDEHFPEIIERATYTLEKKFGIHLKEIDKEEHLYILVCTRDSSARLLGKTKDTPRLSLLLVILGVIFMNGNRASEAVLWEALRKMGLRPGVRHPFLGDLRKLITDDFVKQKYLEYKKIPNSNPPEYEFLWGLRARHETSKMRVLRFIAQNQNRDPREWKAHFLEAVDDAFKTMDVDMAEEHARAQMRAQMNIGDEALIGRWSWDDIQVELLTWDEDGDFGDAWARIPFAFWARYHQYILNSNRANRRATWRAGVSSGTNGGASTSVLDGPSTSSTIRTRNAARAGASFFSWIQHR
UniProt Q9Y2U5: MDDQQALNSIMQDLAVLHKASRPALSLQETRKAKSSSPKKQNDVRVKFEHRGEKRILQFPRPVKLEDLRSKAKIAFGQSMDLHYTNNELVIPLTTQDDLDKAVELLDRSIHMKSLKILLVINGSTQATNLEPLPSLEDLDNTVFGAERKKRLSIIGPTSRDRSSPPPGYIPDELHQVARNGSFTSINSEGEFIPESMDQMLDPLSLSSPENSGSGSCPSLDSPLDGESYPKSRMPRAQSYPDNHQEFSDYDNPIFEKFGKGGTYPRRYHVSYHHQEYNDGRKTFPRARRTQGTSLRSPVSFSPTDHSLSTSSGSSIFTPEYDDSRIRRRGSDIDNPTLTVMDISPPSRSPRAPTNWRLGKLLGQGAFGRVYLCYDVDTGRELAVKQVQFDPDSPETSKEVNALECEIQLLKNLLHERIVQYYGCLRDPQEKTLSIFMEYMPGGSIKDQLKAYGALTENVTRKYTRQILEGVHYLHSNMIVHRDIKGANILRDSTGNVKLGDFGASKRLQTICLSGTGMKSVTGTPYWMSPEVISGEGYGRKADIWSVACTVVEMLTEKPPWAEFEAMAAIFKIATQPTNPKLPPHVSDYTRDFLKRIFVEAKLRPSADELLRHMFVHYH
UniProt Q13164: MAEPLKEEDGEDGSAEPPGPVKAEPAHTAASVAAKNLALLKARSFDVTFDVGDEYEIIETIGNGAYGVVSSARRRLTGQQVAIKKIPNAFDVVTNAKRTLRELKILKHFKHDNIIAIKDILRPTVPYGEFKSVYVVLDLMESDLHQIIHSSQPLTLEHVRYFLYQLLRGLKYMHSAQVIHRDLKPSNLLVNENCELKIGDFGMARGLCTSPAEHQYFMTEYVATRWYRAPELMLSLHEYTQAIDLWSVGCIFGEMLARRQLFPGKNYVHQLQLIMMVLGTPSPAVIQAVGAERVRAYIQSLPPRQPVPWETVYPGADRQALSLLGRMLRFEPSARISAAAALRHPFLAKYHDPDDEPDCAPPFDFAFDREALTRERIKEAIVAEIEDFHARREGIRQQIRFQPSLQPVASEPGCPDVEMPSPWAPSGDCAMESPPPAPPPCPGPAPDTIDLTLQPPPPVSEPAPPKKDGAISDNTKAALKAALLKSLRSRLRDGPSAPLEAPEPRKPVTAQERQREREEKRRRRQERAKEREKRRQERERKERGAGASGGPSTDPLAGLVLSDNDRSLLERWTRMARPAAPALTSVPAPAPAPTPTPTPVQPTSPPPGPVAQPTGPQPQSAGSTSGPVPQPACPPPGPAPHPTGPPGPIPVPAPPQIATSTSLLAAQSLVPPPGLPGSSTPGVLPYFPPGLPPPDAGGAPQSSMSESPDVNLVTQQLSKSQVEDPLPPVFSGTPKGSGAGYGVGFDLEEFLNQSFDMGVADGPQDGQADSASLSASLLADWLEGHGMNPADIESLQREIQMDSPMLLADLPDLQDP
UniProt P43358: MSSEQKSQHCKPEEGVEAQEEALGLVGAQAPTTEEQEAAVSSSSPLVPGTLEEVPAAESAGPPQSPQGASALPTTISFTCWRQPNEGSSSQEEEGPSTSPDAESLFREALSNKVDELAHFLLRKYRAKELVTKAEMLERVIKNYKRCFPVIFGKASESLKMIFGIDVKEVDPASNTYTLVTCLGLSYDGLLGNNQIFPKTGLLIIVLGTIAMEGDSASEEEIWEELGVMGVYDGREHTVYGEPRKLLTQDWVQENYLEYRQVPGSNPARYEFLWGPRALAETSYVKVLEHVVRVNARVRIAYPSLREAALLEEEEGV

Compound in a further assay: CC(C)(C)Cn1c(N)nc2ccc(-c3[nH]c(C(C)(C)C)nc3-c3ccc(F)cc3)nc21 [ralimetinib]
The method, boiled down: as §1

Compound in assay [2]: CC(C)(O)CC(=O)NCCn1ccc2ncnc(Nc3ccc(Oc4cccc(C(F)(F)F)c4)c(Cl)c3)c21
The procedure, abridged: as §1

Compound in assay [3]: CC1=C(C=C(C=C1)NC(=O)C2=CC(=CC=C2)C(C)(C)C#N)NC3=CC4=C(C=C3)N=CN(C4=O)C
The procedure, abridged: as §1

Compound in assay [4]: CC1=C(C=C(C=C1)NC(=O)C2=CC(=CC=C2)N(C)C)NC(=O)C3=CC=C(C=C3)O
The procedure, abridged: as §1

Compound in assay [5]: CC1=CC=C(C=C1)SC2=C3C=C(SC3=CN=C2)C(=O)N
The procedure, abridged:
as §1

Compound in another assay: CCCS(=O)(=O)Nc1ccc(F)c(C(=O)c2c[nH]c3ncc(-c4ccc(Cl)cc4)cc23)c1F [vemurafenib]
The procedure, abridged: as §1

Compound in assay [6]: CCCS(=O)(=O)Nc1ccc(F)c(C(=O)c2c[nH]c3ncc(Cl)cc23)c1F
The method, boiled down:
as §1

Compound in assay [7]: CC[C@@H]1C(=O)N(C)c2cnc(Nc3ccc(C(=O)NC4CCN(C)CC4)cc3OC)nc2N1C1CCCC1
The procedure, abridged:
as §1

Compound in another assay: CC[C@@H]1C(=O)N(C)c2cnc(Nc3ccc(C(=O)N[C@H]4CC[C@H](N5CCN(CC6CC6)CC5)CC4)cc3OC)nc2N1C(C)C [volasertib]
The method, boiled down:
as §1

Compound in assay [8]: CCn1c(C(=O)N(C2CC2)C2CC2)cc2c3c(ncn3C)c(Nc3cc(C)n(C)n3)nc21
The procedure, abridged:
as §1

Compound in assay [9]: CCn1cc(-c2ccnc3[nH]c(-c4cccc(CN(C)C)c4)cc23)c(-c2ccc(NC(=O)N(C)C)cc2)n1
The method, boiled down: as §1

Compound in assay [10]: CN1CCC(CNc2ccc3ncc(-c4cccc(OC(F)(F)F)c4)n3n2)CC1
The procedure, abridged:
as §1

Compound in a further assay: CN1CCN(c2nc(C3=C(c4c[nH]c5ccccc45)C(=O)NC3=O)c3ccccc3n2)CC1 [sotrastaurin]
The method, boiled down:
as §1

Compound in assay [11]: CC(C)C1=C2N=C(C=C(N2N=C1)NCC3=CC=CC=C3)NCCCCCCN
The method, boiled down: as §1

Compound in assay [12]: CC1=C(C2=C(C=C1)C(=O)C3=CC=CC=C3N2CCCN)C
The method, boiled down:
as §1

Compound in the next assay: CN1CCN(CCOc2cc(OC3CCOCC3)c3c(Nc4c(Cl)ccc5c4OCO5)ncnc3c2)CC1 [saracatinib]
The procedure, abridged: as §1

Compound in assay [13]: CC1=C(C(CC(=O)N1)C2=CC=C(C=C2)C(F)(F)F)C(=O)NC3=C(C=C4C(=C3)C=NN4)F
The method, boiled down:
as §1

Compound in another assay: C=CC(=O)N1CCC[C@@H](n2nc(-c3ccc(Oc4ccccc4)cc3)c3c(N)ncnc32)C1 [ibrutinib]
The procedure, abridged:
as §1

Compound in another assay: CCN(CCCOc1ccc2c(Nc3cc(CC(=O)Nc4cccc(F)c4)[nH]n3)ncnc2c1)CCOP(=O)(O)O [barasertib]
The method, boiled down:
as §1

Some of the results follow.

In the case of LYPLA1, A0A087X1K9, the log2 fold change was inactive: -0.02 in assay [1]; inactive: 0.074 with ralimetinib; inactive: -0.19 in assay [2]; inactive: 0.036 in assay [3]; inactive: 0.039 in assay [4]; inactive: -0.336 in assay [5]. The log2 fold change with vemurafenib was inactive: -0.078; in assay [6], inactive: 0.131; in assay [7] it was inactive: -0.042; with volasertib it was inactive: 0.044; in [8] it was inactive: -0.051; in [9], inactive: -0.342. Moreover, the results for the log2 fold change (in assay [10]; in the assay with sotrastaurin) were inactive: 0.133 and inactive: 0.044, respectively.

MAGEA6 (UniProt P43360): the log2 fold change in [11] is inactive: -0.119; in assay [3], inactive: -0.165; in the assay with vemurafenib, inactive: 0.003; in assay [7], inactive: 0.031; with sotrastaurin, inactive: -0.117.

Regarding LYRM1 (UniProt O43325), the log2 fold change is inactive: -0.015 in assay [11]; inactive: 0.037 in assay [12]; inactive: 0.046 in assay [3]; inactive: -0.166 with vemurafenib; inactive: -0.117 in assay [9]; inactive: -0.121 in [10]. Besides, the values for the log2 fold change in the assay with saracatinib and in the assay with sotrastaurin were inactive: -0.052 and inactive: -0.074, respectively.

In the case of MAP3K1 (UniProt Q13233), the log2 fold change in the assay with ralimetinib is inactive: -0.137; in assay [2], inactive: -0.034; in assay [13], inactive: 0.038; in assay [3] it was inactive: 0.014; in assay [4] it was inactive: 0.092; with vemurafenib, inactive: 0.035. Besides, the log2 fold change in [7] is inactive: -0.002; in assay [8], inactive: -0.167; in assay [9] it was inactive: -0.083; in [10], inactive: 0.104; with sotrastaurin it was inactive: -0.232.

MAGEB10 (UniProt Q96LZ2): the log2 fold change was inactive: 0.032 in assay [9] and inactive: -0.253 in [10].

In the case of MAFF (UniProt Q9ULX9), the log2 fold change in [1] was inactive: -0.091; in [11] it was inactive: -0.166; in assay [3] it was inactive: -0.029; in assay [5] it was inactive: -0.078; in the assay with vemurafenib it was inactive: 0.075; in assay [6], inactive: -0.027. For the same target, the log2 fold change is inactive: -0.029 in [7]; inactive: -0.21 with volasertib; inactive: -0.154 in [9]; inactive: -0.019 in [10]; inactive: 0.027 with sotrastaurin.

Take MARCHF3 (UniProt Q86UD3): the log2 fold change with vemurafenib is inactive: 0.032; in assay [7] it was inactive: 0.002; in assay [9], inactive: 0.271; in assay [10], inactive: -0.071.

MAPKAP1 (UniProt Q9BPZ7): the log2 fold change in the assay with ralimetinib was inactive: -0.019; in assay [2], inactive: 0; in assay [11] it was inactive: -0.031; in assay [13] it was inactive: -0.103; in assay [12], inactive: 0.061; in assay [3], inactive: 0.007. In addition, the log2 fold change is inactive: -0.034 in assay [4]; inactive: 0.031 in assay [7]; inactive: 0.005 in assay [8]; inactive: 0.057 with saracatinib; inactive: -0.045 with sotrastaurin.

For the target MAGED4 isoform 4 (UniProt Q96JG8), the log2 fold change was inactive: -0.258 in assay [9] and inactive: 0.369 in assay [10].

As for MAP3K2 (UniProt Q9Y2U5), the log2 fold change with ibrutinib was inactive: -0.103; in [11] it was inactive: -0.047; in assay [12], inactive: -0.159; in [3], inactive: 0.06; with vemurafenib, inactive: 0.425; with barasertib, inactive: -0.032. In addition, the log2 fold change in [7] is inactive: 0.111; in assay [9], inactive: -0.306; in assay [10] it was inactive: -0.225; with saracatinib, inactive: -0.039; in the assay with sotrastaurin, inactive: -0.037.

With MAPK7 (UniProt Q13164), the log2 fold change in [1] was active: 0.388; in assay [11], inactive: 0.025; in assay [3], inactive: -0.034; in assay [5], inactive: -0.013; in assay [6], inactive: 0.024; in assay [7], inactive: 0.072. The log2 fold change is inactive: -0.056 with volasertib, inactive: -0.084 in assay [9], inactive: -0.101 in assay [10] and inactive: -0.031 in the assay with sotrastaurin.

With MAGEA4 (UniProt P43358), the log2 fold change in [1] is inactive: -0.004; with ralimetinib it was inactive: 0.054; in assay [2], inactive: -0.03; in assay [11], inactive: 0.011; in [13], inactive: 0.03; in assay [12], inactive: 0.004. In addition, the log2 fold change in assay [3] was inactive: 0.023; in assay [4], inactive: 0.097; in [5], inactive: 0.054; with vemurafenib, inactive: -0.046; in [6], inactive: -0.07; in assay [7], inactive: -0.07. Also, the log2 fold change was inactive: -0.04 with volasertib; inactive: 0.05 in assay [8]; inactive: 0.293 in assay [9]; inactive: -0.075 in [10]; inactive: 0.054 in the assay with saracatinib; inactive: -0.02 in the assay with sotrastaurin.

In the case of MAPK3 (UniProt H0YEX6), the log2 fold change in assay [13] is inactive: 0.029.

The values are drawn from the supplement of paper PMC10849652.
